Reference: patent publication EP4223882A1, “PROCESS FOR PRODUCING ALDONIC ACIDS” (Vilnius University, priority 2022, dated 2023)
At least one compound was matched to its structure with a doubt left.

Biological target: T1, PQQGDH (Acinetobacter calcoaceticus, UniProt P13650)
T1 sequence (P13650 25-478): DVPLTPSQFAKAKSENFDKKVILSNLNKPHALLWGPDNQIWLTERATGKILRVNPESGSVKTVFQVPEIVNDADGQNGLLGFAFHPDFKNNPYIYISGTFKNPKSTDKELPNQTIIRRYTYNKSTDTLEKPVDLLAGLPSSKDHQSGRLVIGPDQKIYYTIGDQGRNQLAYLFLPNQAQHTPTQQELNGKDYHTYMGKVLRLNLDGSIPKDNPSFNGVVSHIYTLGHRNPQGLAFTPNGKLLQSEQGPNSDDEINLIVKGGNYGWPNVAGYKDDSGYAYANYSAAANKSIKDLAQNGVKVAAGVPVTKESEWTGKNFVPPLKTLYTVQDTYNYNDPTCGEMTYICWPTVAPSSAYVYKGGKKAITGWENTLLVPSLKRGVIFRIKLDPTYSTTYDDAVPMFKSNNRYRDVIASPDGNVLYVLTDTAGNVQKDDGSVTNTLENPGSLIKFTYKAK

Q: With O=CCC(O)C(O)CO (centres unmarked) [Deoxyribose] as the molecule, how does the “substrate concentration at which the maximal reaction rate was observed (cmax)” value (grouping of substrates) read?
A: > 20 mM

Q: What about the cmax (pH 7.0, thionine 220 µM, substrate concentration at maximal rate, sqrt(KM·Ki)) of the same molecule?
A: >10^4 mM
